Test results taken from patent publication US20100316569A1.
These are yes or no findings as the source states them, for the method shown. Binding calls can cover weak binding; strength is not graded here. Blank lines part the entries; values can stand above or below the molecule they belong to.

Amino acid sequences for entries named in this document (tags omitted). A change or cut given only in a name is not applied to a line headed by its entry. Residues count along the entry.
UniProt Q96LC7, residues 17-697: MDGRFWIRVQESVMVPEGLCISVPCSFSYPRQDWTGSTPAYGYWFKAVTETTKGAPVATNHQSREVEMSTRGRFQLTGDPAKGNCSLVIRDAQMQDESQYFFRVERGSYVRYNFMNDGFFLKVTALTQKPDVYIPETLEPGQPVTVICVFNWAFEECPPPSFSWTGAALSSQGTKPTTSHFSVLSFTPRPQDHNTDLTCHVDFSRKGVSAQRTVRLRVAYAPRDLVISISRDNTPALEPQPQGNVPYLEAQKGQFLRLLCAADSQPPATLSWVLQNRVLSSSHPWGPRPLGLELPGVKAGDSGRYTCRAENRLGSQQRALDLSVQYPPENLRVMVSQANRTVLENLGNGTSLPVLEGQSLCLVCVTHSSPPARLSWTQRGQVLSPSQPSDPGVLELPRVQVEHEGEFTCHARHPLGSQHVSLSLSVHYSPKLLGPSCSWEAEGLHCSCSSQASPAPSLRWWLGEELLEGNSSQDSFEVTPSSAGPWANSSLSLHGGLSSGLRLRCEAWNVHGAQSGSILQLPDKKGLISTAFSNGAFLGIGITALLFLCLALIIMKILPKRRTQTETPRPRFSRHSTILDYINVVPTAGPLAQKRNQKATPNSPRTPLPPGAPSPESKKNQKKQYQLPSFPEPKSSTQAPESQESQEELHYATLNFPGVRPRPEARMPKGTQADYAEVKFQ
UniProt Q16853: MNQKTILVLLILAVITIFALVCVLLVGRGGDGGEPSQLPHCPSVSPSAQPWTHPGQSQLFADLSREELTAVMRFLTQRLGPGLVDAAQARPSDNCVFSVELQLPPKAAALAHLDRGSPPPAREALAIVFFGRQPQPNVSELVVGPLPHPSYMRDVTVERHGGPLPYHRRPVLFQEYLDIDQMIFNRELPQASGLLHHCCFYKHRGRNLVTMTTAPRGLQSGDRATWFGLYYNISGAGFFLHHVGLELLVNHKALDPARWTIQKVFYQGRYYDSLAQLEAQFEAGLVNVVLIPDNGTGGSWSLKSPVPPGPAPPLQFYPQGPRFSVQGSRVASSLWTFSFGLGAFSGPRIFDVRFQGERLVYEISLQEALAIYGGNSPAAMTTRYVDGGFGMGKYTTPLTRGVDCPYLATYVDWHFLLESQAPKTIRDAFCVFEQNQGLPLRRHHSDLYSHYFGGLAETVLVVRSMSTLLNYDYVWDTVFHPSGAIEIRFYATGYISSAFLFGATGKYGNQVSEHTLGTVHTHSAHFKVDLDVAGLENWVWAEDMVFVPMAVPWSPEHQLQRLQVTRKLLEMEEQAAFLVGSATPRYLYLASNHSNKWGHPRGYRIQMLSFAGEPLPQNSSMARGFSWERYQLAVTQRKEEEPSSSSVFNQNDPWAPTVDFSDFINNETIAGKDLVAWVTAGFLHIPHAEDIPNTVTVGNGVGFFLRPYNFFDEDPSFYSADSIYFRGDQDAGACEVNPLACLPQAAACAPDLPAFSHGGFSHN

Key:
[1] = target: Siglec-10 expressed on CHO cells (CHO-Siglec-10) (UniProt Q96LC7); assay: flow cytometry, 20 µg/ml VAP-1 on CHO-Siglec-10 cells against mock cells
[2] = target: recombinant human VAP-1 (Vascular Adhesion Protein-1) (human) (UniProt Q16853); assay: ELISA, biotinylated peptide on wells coated with VAP-1
[3] = target: recombinant human VAP-1 (Vascular Adhesion Protein-1) (human) (UniProt Q16853); assay: ELISA, biotinylated peptide on wells coated with 1 µg/ml VAP-1, BSA as control

binding [1]: binds
Molecule: recombinant human VAP-1 (Vascular Adhesion Protein-1) (from UniProt Q16853) (enzyme)

binding [2]: binds | binding [3]: binds
B1: peptide P3 … (Siglec-10 peptide) (peptide)
peptide: CATLSWVLQNRVLSSC
modifications: biotinylated; cysteines added to both ends

binding [2]: binds | binding [3]: binds
B2: peptide P5 … (Siglec-9 peptide) (peptide)
peptide: CARLSLSWRGLTLCPS
modifications: biotinylated
